In the supplement of paper PMC5949888 one finds growth estimate data, which are given here for 64 substances.

Most values lie at the floor of the assay. Slopes are relative: functional sequences can read slightly below zero. Some results are limits rather than exact numbers.

For this data set, the system named is Saccharomyces cerevisiae PS128 hsf1 delta, HSF1(1-493) fusion. Kind of data set: growth estimate (transactivation domain function in HSF1 fusion, heat-shock survival) (a.u. (slope of normalised read count over time)); higher = stronger growth at 37°C, i.e. more transactivation activity. The following applies: library: random library. The protocol: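 Random 60-nt DNA library encoding peptides of up to 20 aa, fused to the C-terminus of yeast HSF1 residues 1-493 (C-terminal TAD deleted) and expressed from the native HSF1 promoter on a CEN plasmid in hsf1-deleted S. cerevisiae PS128. Cells were selected at 37°C on -trp 5-FOA plates for 0, 2, 4, 6 and 8 days and amplicons were sequenced. Growth estimate is the slope of a robust linear fit of total-sum-normalised read counts (normalised to the first time point) over time, using at least 2 replicates. Sequences are classed functional (TAD activity) above a threshold of -0.13, set from stop-codon control sequences.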
For VGSFGIMRGQFASDSNPDVS, the growth estimate is below -0.25.
The result for GPLITRSPAVCAGPRCTVIS reads below -0.25.
In the case of HVQRRATL, the growth estimate is below -0.25.
For the substance RFLGNQSDS, the growth estimate was below -0.25.
In the case of LLSGNVRVKQGNL, the growth estimate is below -0.25.
The result for DESQEYVTCCHTLGKVLREW reads -0.25.
SVVTPHCESPEPCGTVAPIS: the growth estimate is below -0.25.
As to SIH, the growth estimate is below -0.25.
With MDDEYRGLQILLSCGP, the growth estimate is below -0.25.
The result for RCVPVIGTLRRNTLSLGVT reads below -0.25; that for HVCTVDLEIQIRGH, below -0.25.
The result for RMEVVILPTIANGVYLRQT reads below -0.25; that for KGSQP, below -0.25; that for LEC, below -0.25.
Regarding NAKHFSRRLDTIWASRVLWP, the growth estimate was below -0.25.
In the case of VFTVHNHQNERFRI it was below -0.25.
Turning to TKQQQQMREPDSISSSN, the growth estimate is below -0.25.
As for DGSRRGPVKGSLNGH, the growth estimate was below -0.25.
For the substance SSLYRGPFAASWLVAPTSPS, the growth estimate was below -0.25.
In the case of RLRFRPVKCPMDRRKESSPT, the growth estimate was below -0.25.
In the case of SGIYLGRHFSYFQA it was below -0.25.
Regarding SARSPVYKKE, the growth estimate was below -0.25.
The result for ATDLLKSIHLVFTDSWSPSG reads below -0.25; that for SSPP, below -0.25.
In the case of SHPRVEGCGLFSSWQ it was below -0.25; in that of TMRWSVYRLDVACWSISG, below -0.25; in that of KARDA, below -0.25.
With DRAPRGHGIEYLFGQCVGST, the growth estimate is below -0.25.
The result for VFNY reads below -0.25.
The result for CVSSYGYRGQVSLPGMIQGI reads below -0.25.
The result for ATFPHQITRWALTASFR reads below -0.25.
With PGSLDHGGEVNDSIGDITLE, the growth estimate was below -0.25.
With VVGF, the growth estimate was below -0.25.
As to GLNPLAQNRDIVNVVMDEGA, the growth estimate is below -0.25.
As to FLEIRFCGLTSEAAASH, the growth estimate was below -0.25.
The result for IIAY reads below -0.25.
As for QLYN, the growth estimate was below -0.25.
With YEQKAGAWRVGVKSYVAVRR, the growth estimate is below -0.25.
For IDAFK, the growth estimate was 0.194.
As for CSCSPGQLNVIGPRRCIAMP, the growth estimate is below -0.25.
Take SSHFNTVT: the growth estimate is below -0.25.
The result for EPMNKLLAGYDGPVWMASTR reads below -0.25; that for PYGDPQVSPVRVCYIHVTNR, below -0.25.
The result for TGQLRPVQN reads below -0.25; that for SLEPGEAPPIVAKHIGDGPT, below -0.25.
Take PTKEPRFLMNQKGKH: the growth estimate is below -0.25.
For the substance SNRTGTC, the growth estimate was below -0.25.
In the case of TIASGRYNGSGCWVC it was below -0.25; in that of KWI, below -0.25; in that of GFTYRPGV, below -0.25.
The result for PVFNRSLTMRP reads below -0.25.
The result for VRSSVVDFPASSWRILLARC reads below -0.25; that for MYTGAFCVWPCKCHPN, below -0.25.
Turning to QLGTTSACDYHTHGGSARLP, the growth estimate was -0.231.
With HLRCGPLSAILSMRRNAACT, the growth estimate is below -0.25.
With TVTARGGRSGRPGSELPWTR, the growth estimate was below -0.25.
In the case of NYRVLNALDQQFLIRRHISL it was below -0.25; in that of SGGDGE, below -0.25.
As to NLC, the growth estimate is below -0.25.
The result for PFGSPAFWHSYQTK reads below -0.25; that for VDLRVPAVPGAKRCGVMIDL, below -0.25.
In the case of WTLYKIASELSRSSTQQNKG it was below -0.25; in that of CQMCACPDIHCPN, below -0.25; in that of GRWVGGKTTAKDSSLAAGGG, below -0.25.
